{"sequences": {"note": "Chains of the proteins cited; added tags and fusions are not shown. Lines headed by an entry give the natural chain unless they say otherwise; changes in a name come on top.", "UniProt P19793": "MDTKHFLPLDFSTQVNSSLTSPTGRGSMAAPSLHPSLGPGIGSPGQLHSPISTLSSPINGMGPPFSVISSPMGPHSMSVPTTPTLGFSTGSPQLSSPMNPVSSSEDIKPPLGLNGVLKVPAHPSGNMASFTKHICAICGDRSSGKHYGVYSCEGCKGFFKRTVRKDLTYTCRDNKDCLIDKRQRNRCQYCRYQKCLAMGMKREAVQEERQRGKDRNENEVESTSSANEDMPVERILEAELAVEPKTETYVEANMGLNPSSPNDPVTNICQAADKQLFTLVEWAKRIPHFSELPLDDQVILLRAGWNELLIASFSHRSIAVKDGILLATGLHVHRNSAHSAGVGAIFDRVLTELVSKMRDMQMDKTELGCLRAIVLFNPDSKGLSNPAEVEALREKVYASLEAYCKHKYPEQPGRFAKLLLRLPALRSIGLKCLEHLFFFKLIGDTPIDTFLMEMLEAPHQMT"}, "source": "the GenesisPotency data set", "note": "The whole screen tested about 9,700 compounds, of which about 180 (1.9%) were called active. Inconclusive results (about 35%) are left out. Calls follow the shape of the full dose curve. Some of the results follow.", "data": [{"biological_target": "Retinoic acid receptor RXR-alpha, Homo sapiens (UniProt P19793)", "experiment": "qHTS assay to identify small molecule agonists of the RXR signaling pathway (AID 1159527)", "values": [{"smiles": "[I-].[Na+]", "outcome": "inactive"}]}]}
